PubChem BioAssay AID493246 | Drosophila RNAi Screening Center – 2011
Purpose: 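Genes fly cells need to grow and stay alive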 (primary screen). Cells: Drosophila Kc and S2R+ cells. Reagents: long dsRNA against Drosophila genes. Detection: 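Cell number per well after knock-down, printed as raw plate values; calls were based on per-plate z-scores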. Reading the numbers: Kc cell number and S2R+ cell number: higher = more cells remaining. Hit rule: 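Active when the per-plate z-score of cell number is 3 or more in the direction of fewer cells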.
The deposit covers about 21,000 reagents; shown is a random part of those with a known target gene and a result. In the full data, 429 (2%) got an active call. 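Values are raw and not normalised between plates; calls rest on per-plate z-scores that were not deposited.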 The numbers tell different reagents against one gene apart. Names joined by + are all predicted targets of the reagent. No sequences are given here. Not stated in the record: the amount of reagent, the time to read-out.

Trs31 (TRAPP subunit 31)
- Kc cell number, rep 1: 1.44e6
- Kc cell number, rep 2: 1.51e6
- S2R+ cell number, rep 1: 1.10e6
- S2R+ cell number, rep 2: 1.23e6
- Call: inactive

Smyd4-3 (SET and MYND domain containing, class 4, member 3)
- Kc cell number, rep 1: 1.34e6
- Kc cell number, rep 2: 1.43e6
- S2R+ cell number, rep 1: 1.09e6
- S2R+ cell number, rep 2: 1.16e6
- Call: inactive

Sox102F
- Kc cell number, rep 1: 5.13e5
- S2R+ cell number, rep 1: 8.43e5
- Call: inactive

CG9445
- Kc cell number, rep 1: 1.63e6
- Kc cell number, rep 2: 1.62e6
- S2R+ cell number, rep 1: 1.27e6
- S2R+ cell number, rep 2: 1.39e6
- Call: inactive

CG12826
- Kc cell number, rep 1: 1.74e6
- Kc cell number, rep 2: 1.79e6
- S2R+ cell number, rep 1: 1.30e6
- S2R+ cell number, rep 2: 1.50e6
- Call: inactive

CG3246
- Kc cell number, rep 1: 1.36e6
- Kc cell number, rep 2: 1.33e6
- S2R+ cell number, rep 1: 1.12e6
- S2R+ cell number, rep 2: 1.24e6
- Call: inactive

CG16974
- Kc cell number, rep 1: 1.50e6
- Kc cell number, rep 2: 1.67e6
- S2R+ cell number, rep 1: 1.33e6
- S2R+ cell number, rep 2: 1.35e6
- Call: inactive

RpL36A (Ribosomal protein L36A)
- Kc cell number, rep 1: 1.23e6
- Kc cell number, rep 2: 1.32e6
- S2R+ cell number, rep 1: 7.35e5
- S2R+ cell number, rep 2: 8.39e5
- Call: active

CG11858
- Kc cell number, rep 1: 1.44e6
- Kc cell number, rep 2: 1.50e6
- S2R+ cell number, rep 1: 9.91e5
- S2R+ cell number, rep 2: 1.13e6
- Call: inactive

ecd (ecdysoneless)
- Kc cell number, rep 1: 1.40e6
- Kc cell number, rep 2: 1.41e6
- S2R+ cell number, rep 1: 1.23e6
- S2R+ cell number, rep 2: 1.29e6
- Call: inactive

CG30492 (retired record) + M7BP #1
- Kc cell number, rep 1: 1.51e6
- Kc cell number, rep 2: 1.59e6
- S2R+ cell number, rep 1: 9.88e5
- S2R+ cell number, rep 2: 1.10e6
- Call: inactive

CG30492 (retired record) + M7BP #2
- Kc cell number, rep 1: 1.38e6
- Kc cell number, rep 2: 1.59e6
- S2R+ cell number, rep 1: 9.93e5
- S2R+ cell number, rep 2: 1.09e6
- Call: inactive

CG30492 (retired record) + M7BP #3
- Kc cell number, rep 1: 1.59e6
- Kc cell number, rep 2: 1.64e6
- S2R+ cell number, rep 1: 1.04e6
- S2R+ cell number, rep 2: 1.11e6
- Call: inactive

CG30492 (retired record) + M7BP #4
- Kc cell number, rep 1: 1.58e6
- Kc cell number, rep 2: 1.60e6
- S2R+ cell number, rep 1: 1.27e6
- S2R+ cell number, rep 2: 1.47e6
- Call: inactive

CG30492 (retired record) + M7BP #5
- Kc cell number, rep 1: 1.64e6
- Kc cell number, rep 2: 1.68e6
- S2R+ cell number, rep 1: 1.37e6
- S2R+ cell number, rep 2: 1.49e6
- Call: inactive

Obp58c (Odorant-binding protein 58c)
- Kc cell number, rep 1: 1.46e6
- Kc cell number, rep 2: 1.55e6
- S2R+ cell number, rep 1: 1.28e6
- S2R+ cell number, rep 2: 1.37e6
- Call: inactive

ss (spineless)
- Kc cell number, rep 1: 1.23e6
- Kc cell number, rep 2: 1.29e6
- S2R+ cell number, rep 1: 1.20e6
- S2R+ cell number, rep 2: 1.38e6
- Call: inactive

ND-49L (NADH dehydrogenase (ubiquinone) 49 kDa subunit-like)
- Kc cell number, rep 1: 1.75e6
- Kc cell number, rep 2: 1.86e6
- S2R+ cell number, rep 1: 1.04e6
- S2R+ cell number, rep 2: 1.13e6
- Call: inactive

Src64B (Src oncogene at 64B)
- Kc cell number, rep 1: 1.34e6
- Kc cell number, rep 2: 1.38e6
- S2R+ cell number, rep 1: 1.10e6
- S2R+ cell number, rep 2: 1.11e6
- Call: inactive

rdx (roadkill) #1
- Kc cell number, rep 1: 1.37e6
- Kc cell number, rep 2: 1.37e6
- S2R+ cell number, rep 1: 8.26e5
- S2R+ cell number, rep 2: 9.18e5
- Call: inactive

rdx (roadkill) #2
- Kc cell number, rep 1: 1.22e6
- Kc cell number, rep 2: 1.47e6
- S2R+ cell number, rep 1: 1.00e6
- S2R+ cell number, rep 2: 1.06e6
- Call: inactive

CG31793
- Kc cell number, rep 1: 1.51e6
- Kc cell number, rep 2: 1.62e6
- S2R+ cell number, rep 1: 1.34e6
- S2R+ cell number, rep 2: 3.92e5
- Call: inactive

CG7387
- Kc cell number, rep 1: 1.29e6
- Kc cell number, rep 2: 1.34e6
- S2R+ cell number, rep 1: 1.41e6
- S2R+ cell number, rep 2: 1.25e6
- Call: inactive

CG31126
- Kc cell number, rep 1: 1.28e6
- Kc cell number, rep 2: 1.37e6
- S2R+ cell number, rep 1: 1.04e6
- S2R+ cell number, rep 2: 1.15e6
- Call: inactive

Tsf3 (Transferrin 3)
- Kc cell number, rep 1: 1.31e6
- Kc cell number, rep 2: 1.33e6
- S2R+ cell number, rep 1: 1.14e6
- S2R+ cell number, rep 2: 1.22e6
- Call: inactive

Cyp6v1 (Cytochrome P450 6v1)
- Kc cell number, rep 1: 1.56e6
- Kc cell number, rep 2: 1.55e6
- S2R+ cell number, rep 1: 9.99e5
- S2R+ cell number, rep 2: 1.02e6
- Call: inactive

ReepA (Receptor expression enhancing protein A)
- Kc cell number, rep 1: 1.34e6
- Kc cell number, rep 2: 1.42e6
- S2R+ cell number, rep 1: 1.07e6
- S2R+ cell number, rep 2: 1.16e6
- Call: inactive

Entries listed so far whose gene name begins with R or r:
RpL36A (Ribosomal protein L36A)
- Kc cell number, rep 1: 1.23e6
- Kc cell number, rep 2: 1.32e6
- S2R+ cell number, rep 1: 7.35e5
- S2R+ cell number, rep 2: 8.39e5
- Call: active

rdx (roadkill) #1
- Kc cell number, rep 1: 1.37e6
- Kc cell number, rep 2: 1.37e6
- S2R+ cell number, rep 1: 8.26e5
- S2R+ cell number, rep 2: 9.18e5
- Call: inactive

rdx (roadkill) #2
- Kc cell number, rep 1: 1.22e6
- Kc cell number, rep 2: 1.47e6
- S2R+ cell number, rep 1: 1.00e6
- S2R+ cell number, rep 2: 1.06e6
- Call: inactive

ReepA (Receptor expression enhancing protein A)
- Kc cell number, rep 1: 1.34e6
- Kc cell number, rep 2: 1.42e6
- S2R+ cell number, rep 1: 1.07e6
- S2R+ cell number, rep 2: 1.16e6
- Call: inactive
